# Library screen at single concentrations

Source: ChEMBL document CHEMBL3988442, “University of Dundee, Small-Polar-MMV Screening Library” (2021).

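Cell assay of Leishmania donovani living inside macrophages; the read-out is not stated. Compounds at 30 µM. Direction is inferred from retests: higher values go with stronger inhibition. Size under these conditions: about 69,000 compounds, about 1,000 of them at 50% or above in at least one test.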

Values are the deposited “Percent Effect”, in %.
The record does not define 0% and 100%; most values in the screen are far below 50% and negative numbers occur (in some assays of this library far below -100).
Compounds were drawn at random from those tested, without regard to their results.
Two or more numbers in one place are separate tests of the same structure; such repeats can differ widely.

| Compound | percent effect |
|---|---|
| `O=C1CCC2(CCNCC2)CN1CCCNc1cccnc1` | 16.56 |
| `CCc1nnsc1-c1nc(C(C)C)nn1-c1ccc2c(c1)OCO2` | 21.12 |
| `Cn1nnc2c(N3CC(C(=O)NCc4cccs4)C3)ncnc21` | -10.2 |
| `CN(CCn1cccn1)S(=O)(=O)c1cccc(F)c1C#N` | -1.614 |
| `CC(C)N1CCC(Nc2ccn(C)n2)C1=O` (centres unmarked) | -29.06 |
| `Cc1noc(C)c1CNC(C(=O)N1CCOCC1)C(C)C` (centres unmarked) | 17.17 |
| `Cc1cnc(CNCc2cn(CCN3CCSCC3)nc2C)cn1` | -7.871 |
| `Cc1nc(C)n(CC2CCCCN2CCCS(N)(=O)=O)n1` (centres unmarked) | 26.92 |
| `Cc1nc2ccc(C(=O)N3CCC(COc4ccccn4)CC3)cc2[nH]1` | 14.22 |
| `Cn1ccc(C(=O)NCCOc2ccc3c(c2)OCO3)cc1=O` | 23.77 |
| `Cc1n[nH]c(C)c1NC(=O)NCc1ccccn1` | 15.64 |
| `COCCN(C)C1COC2(CCN(Cc3ccccn3)CC2)C1.O=C(O)C(F)(F)F.O=C(O)C(F)(F)F` (centres unmarked) | 18.34 |
| `CCc1cnc(CNC(=O)NC2CCN(C3CCCC3)CC2)s1` | -19.27 |
| `O=C(CN1CCOC1=O)N(Cc1ccccc1)Cc1nccs1` | -10.92 |
| `O=C1CN(C(=O)C2CN(c3cccc(Cl)c3)CCO2)CCN1` (centres unmarked) | 30.24 |
| `CC(C)CC1SCC(=O)Nc2c1cnn2C(C)C` (centres unmarked) | 34.47 |
| `c1ccc(-c2nc(SCc3nnc(C4CC4)o3)n[nH]2)nc1` | 0.6779 |
| `Cn1nc2c(c1NC(=O)c1ccc(C3CCCN3C3CCC3)s1)CCC2` (centres unmarked) | 1.039 |
| `CCN1C(=O)CCC12CCCN(CCc1ccccc1)C2` (centres unmarked) | 9.451 |
| `Cc1nc(O)cc(CCNc2nccc(CCC(F)(F)F)n2)n1` | 19.16 |
| `[H][C@]12CNC[C@@]1(C(=O)NCCCc1ccccc1)CN(C(=O)C1CC1)C2` | 38.71 |
| `Cc1c[nH]c(CN(C)C(C(=O)O)c2c(F)cccc2Cl)n1` (centres unmarked) | -7.31 |
| `COc1c(C2CCCN2CC(=O)Nc2nc(C)cs2)c(C)nn1C` (centres unmarked) | 30.89 |
| `Cc1nccc(-c2cccc(NCc3nc(C(C)C)no3)c2)n1` | -6.16 |
| `CCCOCCCNc1nccc(-c2cn(C)nc2C)n1` | 20.7 |
| `[H][C@]12CC[C@]([H])(CN(Cc3c(C)noc3C)C1)N(Cc1ccc(F)c(C)c1)C2` | 12.14 |
| `CC1c2ncc(CNC(=O)C3CC3)n2CCN1Cc1cnn(C)c1.O=C(O)C(F)(F)F.O=C(O)C(F)(F)F` (centres unmarked) | 14.52 |
| `O=C(O)C(F)(F)F.c1cnc(N2CCOCC3(CCCN(Cc4cc[nH]n4)C3)C2)nc1` (centres unmarked) | 11.68 |
| `CN(Cc1cc(Br)cn1C)C(=O)c1cccnc1` | 12.91 |
| `CCn1cc(C(=O)N2CCCC(c3nccs3)C2)cn1` (centres unmarked) | -26.29 & -14.7 |
| `CCn1cc(CNC(=O)C(C)C)cn1` | 0.8798 |
| `Cc1nn(C)c(C)c1C1COCCN1C(=O)NC1CC1` (centres unmarked) | -19.83 |
| `CN(C)c1nc2c(c(N3CCC4(CCCNC4=O)C3)n1)CCCC2` (centres unmarked) | -6.396 |
| `O=C(O)C(F)(F)F.O=C(O)C(F)(F)F.[H][C@@]12CC(=O)N(c3cccnc3)[C@@]1([H])CCN2Cc1ccc(C)o1` | -9.741 |
| `Cc1nc(NC(=O)c2cccnc2N2CCOCC2)sc1C` | 16.83 |
| `CC(C)CN1CCC2(CC1)CC(NS(C)(=O)=O)c1ccccc1O2.O=C(O)C(F)(F)F` (centres unmarked) | 3.04 |
| `Cn1c(N2CCOCC2)nc2cc(C(=O)N3CCC(O)(CO)C3)ccc21` (centres unmarked) | 21.34 |
| `Cc1nc(CN(C)c2cc(N3CCCC3CO)ncn2)cs1` (centres unmarked) | 6.155 |
| `O=C(Nc1ccc(-n2cccn2)cc1)N1CCC(O)C1` (centres unmarked) | -24.32 |
| `Nc1ncc(C(=O)N2CCCC(N)CC2)c(-c2ccccc2)n1` (centres unmarked) | 1.562 |
| `CC(C)c1noc(CN(Cc2ccccc2)C2CC2)n1` | 19.59 |
| `CCCn1nc(C)c(CNC(=O)C2COc3ccc(OC)cc3C2)c1C` (centres unmarked) | 17.59 |
| `Fc1ccc(Sc2ccccc2CNC2=NCCN2)cc1.I` | 50.51 |
| `Cc1nc(CN(Cc2ccc3c(c2)OCCO3)C2CCCC2)no1` | 14.64 |
| `Cn1ccnc1COc1ccc(CSc2nnnn2C2CC2)cc1` | -22.65 |
| `CN(Cc1cn2c(n1)CN(C(=O)C1CCCO1)CC2)Cc1ccco1` (centres unmarked) | 6.009 & 23.13 |
| `CCc1c(C)sc2nc3n(CCN4CCCCC4)nc(SC)n3c(=O)c12` | 50.52 |
| `CC(Cc1cccnc1)Nc1ncnc2cccc(F)c12` (centres unmarked) | 5.204 |
| `CCCN(C1CCc2ccccc2C1)S(C)(=O)=O` (centres unmarked) | -4.324 |
| `O=C1CCc2cc(S(=O)(=O)NCc3cc4n(n3)CCCNC4)ccc2N1` | -23.93 |
| `CC(Cc1ccsc1)NC(=O)c1cc(N2CCNC2=O)ccc1F` (centres unmarked) | 20.05 |
| `Cc1nc(CN2CCCC(N(C)Cc3c(C)noc3C)C2)no1` (centres unmarked) | 36.91 |
| `Cc1cc(C(=O)Cn2cnnc2[S+](C)[O-])cc(C)c1F` (centres unmarked) | 9.03 |
| `[H][C@]12CC[C@]([H])(CN(Cc3ccncc3)C1)N(C(=O)CSc1ncccn1)C2` | 54.88 |
| `N#Cc1ccnc(N2CCN(CC(O)c3ccc(F)c(F)c3)CC2)c1` (centres unmarked) | 3.123 |
| `CCc1nc(C)sc1CN1CC[C@@](O)(C2CCOCC2)[C@H](C)C1` | -27.36 |
| `Cc1cc(C(=O)N2CCN(Cc3ccsc3)CC2)n(C)n1` | 13.15 |
| `CN1CCN(Cn2nc(-c3cccs3)ccc2=O)CC1` | 17.7 |
| `Cn1cc(CN2CCCC23CCN(S(C)(=O)=O)CC3)cn1` | 7.565 |
| `O=C(O)C(F)(F)F.[H][C@]12CCC[C@@]1(COCc1ccncc1)CN(C(=O)c1occc1C)C2` | 25.28 |
| `COc1ccc(NC(C)C(=O)N2CCCC2)cn1` (centres unmarked) | 16.6 |
| `O=C(Nc1ccccc1)C1CN(Cc2nccs2)CC12CCOCC2` (centres unmarked) | -8.743 |
| `CCOCCn1c(=O)n(Cc2ccc(F)cc2)c2ncc(C(=O)O)cc21` | 6.781 |
| `CC(C)COC(C)C(=O)N1CCN(S(C)(=O)=O)CC1` (centres unmarked) | 33.08 |
| `COCCS(=O)(=O)c1ncc(CN(C)C)n1Cc1ccccc1` | -3.223 |
| `[H][C@@]12CN(c3ccccn3)C[C@]1([H])N(CCCc1ccc(F)cc1)C(=O)O2` | 19.2 |
| `O=C(N1CCCC1)N1CCc2ncnc(C3CCOC3)c2CC1` (centres unmarked) | -0.6847 |
| `Cc1cc(N(C)CCN(C)C)n2nc(C)cc2n1` | 18.29 |
| `Cc1cc(CN(C)C(=O)NC2CCS(=O)(=O)C2)no1` (centres unmarked) | 24.81 |
| `O=C(O)C(F)(F)F.[H][C@]12CCN(CC3CC3)C[C@@]1([H])OCCN(C(=O)c1ccco1)C2` | 52.8 |
| `O=C(c1coc(-c2ccccc2)n1)N1CCCC1` | 19.7 |
| `O=C1COC2(CCN(C(=O)c3cnccn3)CC2)CN1CC1CC1` | 7.407 |
| `COc1cccc(S(=O)(=O)CCN2CCCN(C(C)=O)CC2)c1` | 34.42 |
| `[H][C@@]12CCN(C[C@@H]1CN1CCOCC1)[C@@H](CNS(=O)(=O)c1ccccc1)C2` | -21.96 |
| `CN(CC1(O)CCCN(c2ccccn2)C1)C(=O)CC1CCOCC1` (centres unmarked) | 17.7 |
| `CC(NC(=O)CCN1CCOC1=O)(c1ccccc1)c1ccccc1` | -15.3 |
| `CC(=O)NC1CCN(C(=O)Nc2cccc(SC(F)F)c2)CC1` | 7.633 |
| `O=C(NCCn1ccnc1)N1CCN(Cc2ccco2)CC1` | 26.93 |
| `Cc1nc(C(=O)N(C)CC2CC2)nn1-c1ccccc1C(C)C` | 4.467 |
| `CC(Oc1ccc2c(c1)OCO2)C(=O)Nc1ccon1` (centres unmarked) | -42.66 |
| `CCS(=O)(=O)N1CCCCC1c1nc(CC(C)C)no1` (centres unmarked) | 4.597 |
| `c1cnc(-c2nn3c(CN4CCOCC4)nnc3s2)cn1` | -48.37 |
| `CCN(Cc1cccnc1)CC1CCCO1` (centres unmarked) | 7.589 |
| `Cc1cc(C)n(C2CCCN(C(=O)COCC(F)(F)F)C2)n1` (centres unmarked) | 1.722 |
| `CN1CCN(c2ccccc2CNC(=O)Cc2ccccc2F)CC1` | 26.11 |
| `CCN(CC(=O)Nc1c(C)nn(C)c1C)CC(O)c1ccc(C)cc1` (centres unmarked) | 24.44 |
| `CN(C)C(=O)NC1COC2(CCN(Cc3ccc(N(C)C)cc3)CC2)C1` (centres unmarked) | 27.02 |

For reference, 5 entries once more:

| Compound | percent effect |
|---|---|
| `CCc1c(C)sc2nc3n(CCN4CCCCC4)nc(SC)n3c(=O)c12` | 50.52 |
| `CN(C)c1nc2c(c(N3CCC4(CCCNC4=O)C3)n1)CCCC2` (centres unmarked) | -6.396 |
| `N#Cc1ccnc(N2CCN(CC(O)c3ccc(F)c(F)c3)CC2)c1` (centres unmarked) | 3.123 |
| `O=C1CCC2(CCNCC2)CN1CCCNc1cccnc1` | 16.56 |
| `[H][C@]12CNC[C@@]1(C(=O)NCCCc1ccccc1)CN(C(=O)C1CC1)C2` | 38.71 |